Source: the supplement of paper PMC5949888
Most values lie at the floor of the assay. Slopes are relative: functional sequences can read slightly below zero.

The substances below were run on Saccharomyces cerevisiae PS128 hsf1 delta, HSF1(1-493) fusion (assay: growth estimate (transactivation domain function in HSF1 fusion, heat-shock survival) (a.u. (slope of normalised read count over time)); higher = stronger growth at 37°C, i.e. more transactivation activity). Settings: library: random library.
Work on KKTMTPALRICRSPTDASQV yielded a growth estimate of less than -0.25.
RCLRCSLASTVAGVPNLD gave a growth estimate of less than -0.25.
In the case of RMISAMP, the growth estimate is reported as less than -0.25.
For PMLGYTRLRC, the growth estimate was less than -0.25.
Work on RSGT yielded a growth estimate of less than -0.25.
In the case of VCWPPITQTFSGPRST, the growth estimate is reported as less than -0.25.
RSPPNRVWCHELQHLSFAFA showed a growth estimate of less than -0.25.
FLHRMS gave a growth estimate of less than -0.25.
With FTQVQVCYRSKYDEKSSNEE the growth estimate was less than -0.25.
With SQQLAEHGQERGSHKRVDKI the growth estimate was less than -0.25.
With KIITSKWF the growth estimate was -0.0645.
For SNPSSCGLGVGPALVG, the growth estimate was less than -0.25.
With ILWEILLARSNFRWRPFASI the growth estimate was less than -0.25.
DTPALTRLELPSATGNVSNG gave a growth estimate of less than -0.25.
Substance GRFPRGGLIRSVGGELAVWD has a growth estimate of less than -0.25.
Work on GYILVL yielded a growth estimate of less than -0.25.
Substance ASHRCERRDECNLLW has a growth estimate of less than -0.25.
Substance SLPLATAG has a growth estimate of less than -0.25.
In the case of TCITL, the growth estimate is reported as less than -0.25.
Substance HSDIDRELSRVRETSEVNDC has a growth estimate of less than -0.25.
Substance STPVVP has a growth estimate of less than -0.25.
TGGVAIVGVRHFGISRG gave a growth estimate of less than -0.25.
PRLATA was tested, and the growth estimate was less than -0.25.
In the case of TTK, the growth estimate is reported as -0.243.
For QSRH, the growth estimate was less than -0.25.
For VGCSGSAP, the growth estimate was less than -0.25.
CLTSVYLLDGLGYALLKCT was tested, and the growth estimate was less than -0.25.
AIRYSLLQSNSRRLYLRGG showed a growth estimate of less than -0.25.
For CTAMFALIIVARRARNAHTS, the growth estimate was less than -0.25.
GPRPNLGAPRVARVRRQ gave a growth estimate of less than -0.25.
Work on ERPLVVEGVD yielded a growth estimate of less than -0.25.
SCSCDRAFSTFELAPHNAFI gave a growth estimate of less than -0.25.
In the case of LSQYWRTPLASSQVGKLFKP, the growth estimate is reported as less than -0.25.
With IDLTYTRGQKIGVASDGSVG the growth estimate was less than -0.25.
YRDN was tested, and the growth estimate was less than -0.25.
With RLRSLQLNLRSKLPGWDACV the growth estimate was less than -0.25.
In the case of TNAAVRLFLRRDSINAGTKR, the growth estimate is reported as less than -0.25.
With GTAFERDLSKQLLDCQVGVL the growth estimate was less than -0.25.
In the case of NRYIRARTRQRGVASTTHPA, the growth estimate is reported as less than -0.25.
Substance EHALFVD has a growth estimate of less than -0.25.
WRRKFICVRQEKTLAKCQGL was tested, and the growth estimate was less than -0.25.
LYKRVRRRKVHKGCPNRGQE showed a growth estimate of less than -0.25.
Work on LGRQRRTRPTKERDQNPRYH yielded a growth estimate of less than -0.25.
With SLSRPLNR the growth estimate was less than -0.25.
In the case of AKIP, the growth estimate is reported as less than -0.25.
HCSMPEHGRSFFKKPAHAQQ was tested, and the growth estimate was less than -0.25.
EERIRPSTVVGRIYETL showed a growth estimate of less than -0.25.
AVFTSRRRKGHHEIVLCSTI showed a growth estimate of less than -0.25.
Substance PQWLSVPC has a growth estimate of less than -0.25.
Work on LTLVPAHAWGFPGRCVSNTR yielded a growth estimate of less than -0.25.
For QTARFTHMEYGAPLPAPKDS, the growth estimate was less than -0.25.
Substance CRGRNVGKRT has a growth estimate of -0.237.
ELVCRLGPPRRGRRPG was tested, and the growth estimate was less than -0.25.
With VGFLTSRVGNR the growth estimate was less than -0.25.
For IPVVWPGCRSCKCVGLARIR, the growth estimate was less than -0.25.
VATANTYVFYSRLPCADAWF showed a growth estimate of less than -0.25.
With FYVSLFRRFIRALSLLGNMS the growth estimate was less than -0.25.
In the case of IGRSDEMPVENLTSCHVWKP, the growth estimate is reported as less than -0.25.
HDDDGEFQ was tested, and the growth estimate was less than -0.25.
With LCDQVSAI the growth estimate was less than -0.25.
SSVYT showed a growth estimate of less than -0.25.
In the case of SCLFGLLDVHEGFPPESKSV, the growth estimate is reported as less than -0.25.
In the case of VYWT, the growth estimate is reported as less than -0.25.
VPRDEMNWSVALMATVPMFV showed a growth estimate of less than -0.25.
IAGVSSGGTFAVQCSGSSAG was tested, and the growth estimate was less than -0.25.
With GDRPLPLCGGVIGIVENARV the growth estimate was less than -0.25.
Substance SQFLS has a growth estimate of less than -0.25.
SVVRLSIVICTTGAGDSRSQ showed a growth estimate of less than -0.25.
Substance VTTDFV has a growth estimate of less than -0.25.
Work on SESASDFAL yielded a growth estimate of less than -0.25.
QLDVRHPIHSKAERIWLVHD gave a growth estimate of less than -0.25.
With TELPDARPASKGGW the growth estimate was less than -0.25.
In the case of GGCSSAGWSA, the growth estimate is reported as less than -0.25.
In the case of ALPWATRGQHTRVRPACSGL, the growth estimate is reported as less than -0.25.
Substance SRQPWLC has a growth estimate of less than -0.25.
Substance YEYTNMRSRATHN has a growth estimate of less than -0.25.
With VERLDMTVLAAPSVVRRAGS the growth estimate was less than -0.25.
LSTEQLCRQDRYH gave a growth estimate of less than -0.25.
Substance HTIRIGDM has a growth estimate of less than -0.25.
Work on LPQFCHGQLWRWAHKRPPYC yielded a growth estimate of less than -0.25.
SRLRGPGCSCMKDTMAQTLL showed a growth estimate of less than -0.25.
For GYERENHQVAWH, the growth estimate was less than -0.25.
YVWWIETGGLSGWVLGENLL showed a growth estimate of less than -0.25.
Work on IMENKHGFD yielded a growth estimate of less than -0.25.
MTEGLAGLAWCSGSVIPDSV showed a growth estimate of less than -0.25.
FRLHGGEAESNVTYVHSMSP was tested, and the growth estimate was less than -0.25.
GLTL was tested, and the growth estimate was less than -0.25.
In the case of DGKLGKTRFQNPGTRRRPCT, the growth estimate is reported as less than -0.25.
QLVCGMISFLPPQGVGFIAT gave a growth estimate of less than -0.25.
SAHLGSLPTLARSASLLAVR showed a growth estimate of less than -0.25.
ASHTLRRLSLESP gave a growth estimate of less than -0.25.
Work on QETACPTLSVCGLVREARGP yielded a growth estimate of less than -0.25.
Work on GPYEGDWPRSVYHHADGFPR yielded a growth estimate of less than -0.25.
RLWFLGVRSRRLGAVWLRAC showed a growth estimate of less than -0.25.
Work on WKGVVSEPGSQSLPVAGTAE yielded a growth estimate of less than -0.25.
KRLRSEPTSR gave a growth estimate of less than -0.25.
LVFHRHTGLYIILDMAIVIT was tested, and the growth estimate was less than -0.25.
With FRVSDSMMVGCTTLGLCVVR the growth estimate was -0.231.
With LTQKRASST the growth estimate was less than -0.25.
With TCRQLSQ the growth estimate was -0.246.
AWTSEKLG showed a growth estimate of less than -0.25.
IGSNFADHIASPLQRDHTVT gave a growth estimate of less than -0.25.
Substance TRRPLKFNELVESIYHRE has a growth estimate of less than -0.25.
LCEHHRAYTFRVYDQMFWRY showed a growth estimate of less than -0.25.
Substance LRTIALLLRKWLCWGVLVVC has a growth estimate of less than -0.25.
Work on HIIWGDEAWGARSAQPEATH yielded a growth estimate of -0.104.
VIRQRLR was tested, and the growth estimate was -0.0898.
For LDQSCSTQRFLQVSI, the growth estimate was less than -0.25.
Work on RDGN yielded a growth estimate of less than -0.25.
RAC gave a growth estimate of less than -0.25.
Work on SQGSRWWNIRIKGDGD yielded a growth estimate of less than -0.25.
Work on YVETG yielded a growth estimate of less than -0.25.
SDSPRICYVRKTMYPGA showed a growth estimate of less than -0.25.
WGAHSPCSIKGIRVVAQMVR was tested, and the growth estimate was less than -0.25.
SGPTADTISGGGSGEGTKGL gave a growth estimate of less than -0.25.
In the case of MAPSL, the growth estimate is reported as less than -0.25.
GRACLQPKGGDFR was tested, and the growth estimate was less than -0.25.
IRER showed a growth estimate of less than -0.25.
CQHQTATAEGYLWWIPEVIG was tested, and the growth estimate was less than -0.25.
Substance DFSGKRIPGRGVA has a growth estimate of less than -0.25.
Work on KTMVNYMCIISNGCYNKVLY yielded a growth estimate of less than -0.25.
IGSCVAITHLGASGGLALHT was tested, and the growth estimate was less than -0.25.
With RKPPDRSLKVVAIGSVSVRR the growth estimate was less than -0.25.
In the case of WDRSPRATVMTS, the growth estimate is reported as less than -0.25.
Work on AFICLAISMLRLGPWIGKRG yielded a growth estimate of less than -0.25.
For FITPSGTQRCSSSGVPRKWR, the growth estimate was less than -0.25.
Work on REAGEPWSGDLSFHTQ yielded a growth estimate of less than -0.25.
SMHLDYMRVGELLSHRGTGL gave a growth estimate of less than -0.25.
For CLGTCEPDRRAFL, the growth estimate was less than -0.25.
Substance QRLTESGSVHKRLNDHPRQP has a growth estimate of less than -0.25.
NHCGNNASNRLPVPVSTVFS was tested, and the growth estimate was less than -0.25.
CIEPSARSVCANFVVVYRVA gave a growth estimate of less than -0.25.
In the case of GTPERN, the growth estimate is reported as less than -0.25.
LERLGLDQSVGAATLTL was tested, and the growth estimate was less than -0.25.
Substance PCYCVMRFKRARTSWL has a growth estimate of -0.248.
IIRKARGGAIAVPVDLSRNR gave a growth estimate of less than -0.25.
FYSGNFATILLGSCCGRRAC showed a growth estimate of less than -0.25.
With HLLMILSVLRLNNTANRFAL the growth estimate was less than -0.25.
YNHSDSCRHDPHRLGGIDFS gave a growth estimate of -0.231.
SGSGLWPRSGQNAYGYCRVP gave a growth estimate of less than -0.25.
With AFIRHVS the growth estimate was less than -0.25.
VGDVQPKIDLTPLCA was tested, and the growth estimate was less than -0.25.
Work on LKDFSLPRAQSPCEDSIVLF yielded a growth estimate of less than -0.25.
YFLYVRARTERGGMSWFNLQ gave a growth estimate of less than -0.25.
Substance VNGTWMNRAVKGVQINRLSS has a growth estimate of less than -0.25.
With TLLWLVCTGNSTLTAVVRGS the growth estimate was less than -0.25.
With WTSPLEPRRFLEYPGQAAVG the growth estimate was less than -0.25.
Substance SKVKLGLAIEKLNQPRTVFL has a growth estimate of less than -0.25.
In the case of GYTRGTEYSNHGRINSREVG, the growth estimate is reported as less than -0.25.
With ALGYNQSIDQGVLLRFSVRD the growth estimate was less than -0.25.
Work on GNSNWIATVRAIR yielded a growth estimate of less than -0.25.
In the case of FGRLRYIVTEWSVRRWAPVT, the growth estimate is reported as less than -0.25.
ANTALD gave a growth estimate of less than -0.25.
In the case of RSIEPD, the growth estimate is reported as less than -0.25.
Work on AGLHILLFACCEDWSP yielded a growth estimate of less than -0.25.
In the case of LSSFCRGEQTDLVLASHKAI, the growth estimate is reported as less than -0.25.
